These are yes or no findings as the source states them, for the method shown. Binding seen in cells or lysates may run through a third protein. Some results given as binding are weak or reduced against the parent protein; the word gives no strength. Values belong to the molecule of their own block, whether it stands above or below them.
Legend:
[1] = biological target: T1, CLYBL in 293T cells (co-IP with CBP) (UniProt Q8N0X4); test: co-IP; CBP and CLYBL in 293T cell lysate; endogenous or transfected not stated; IP lysis buffer, beads 12 h at 4 °C; bait not stated
T1 sequence: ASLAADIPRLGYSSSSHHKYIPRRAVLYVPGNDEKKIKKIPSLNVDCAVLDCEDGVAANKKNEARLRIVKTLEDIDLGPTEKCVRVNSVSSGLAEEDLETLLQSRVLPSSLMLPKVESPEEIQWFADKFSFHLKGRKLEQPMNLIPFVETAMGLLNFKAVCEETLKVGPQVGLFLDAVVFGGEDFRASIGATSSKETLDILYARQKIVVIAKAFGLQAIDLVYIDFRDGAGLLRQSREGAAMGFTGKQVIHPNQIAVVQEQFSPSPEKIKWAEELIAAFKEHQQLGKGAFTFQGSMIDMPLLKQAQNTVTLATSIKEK

The chains behind the UniProt entries cited, without tags or fusion partners.
UniProt Q92793: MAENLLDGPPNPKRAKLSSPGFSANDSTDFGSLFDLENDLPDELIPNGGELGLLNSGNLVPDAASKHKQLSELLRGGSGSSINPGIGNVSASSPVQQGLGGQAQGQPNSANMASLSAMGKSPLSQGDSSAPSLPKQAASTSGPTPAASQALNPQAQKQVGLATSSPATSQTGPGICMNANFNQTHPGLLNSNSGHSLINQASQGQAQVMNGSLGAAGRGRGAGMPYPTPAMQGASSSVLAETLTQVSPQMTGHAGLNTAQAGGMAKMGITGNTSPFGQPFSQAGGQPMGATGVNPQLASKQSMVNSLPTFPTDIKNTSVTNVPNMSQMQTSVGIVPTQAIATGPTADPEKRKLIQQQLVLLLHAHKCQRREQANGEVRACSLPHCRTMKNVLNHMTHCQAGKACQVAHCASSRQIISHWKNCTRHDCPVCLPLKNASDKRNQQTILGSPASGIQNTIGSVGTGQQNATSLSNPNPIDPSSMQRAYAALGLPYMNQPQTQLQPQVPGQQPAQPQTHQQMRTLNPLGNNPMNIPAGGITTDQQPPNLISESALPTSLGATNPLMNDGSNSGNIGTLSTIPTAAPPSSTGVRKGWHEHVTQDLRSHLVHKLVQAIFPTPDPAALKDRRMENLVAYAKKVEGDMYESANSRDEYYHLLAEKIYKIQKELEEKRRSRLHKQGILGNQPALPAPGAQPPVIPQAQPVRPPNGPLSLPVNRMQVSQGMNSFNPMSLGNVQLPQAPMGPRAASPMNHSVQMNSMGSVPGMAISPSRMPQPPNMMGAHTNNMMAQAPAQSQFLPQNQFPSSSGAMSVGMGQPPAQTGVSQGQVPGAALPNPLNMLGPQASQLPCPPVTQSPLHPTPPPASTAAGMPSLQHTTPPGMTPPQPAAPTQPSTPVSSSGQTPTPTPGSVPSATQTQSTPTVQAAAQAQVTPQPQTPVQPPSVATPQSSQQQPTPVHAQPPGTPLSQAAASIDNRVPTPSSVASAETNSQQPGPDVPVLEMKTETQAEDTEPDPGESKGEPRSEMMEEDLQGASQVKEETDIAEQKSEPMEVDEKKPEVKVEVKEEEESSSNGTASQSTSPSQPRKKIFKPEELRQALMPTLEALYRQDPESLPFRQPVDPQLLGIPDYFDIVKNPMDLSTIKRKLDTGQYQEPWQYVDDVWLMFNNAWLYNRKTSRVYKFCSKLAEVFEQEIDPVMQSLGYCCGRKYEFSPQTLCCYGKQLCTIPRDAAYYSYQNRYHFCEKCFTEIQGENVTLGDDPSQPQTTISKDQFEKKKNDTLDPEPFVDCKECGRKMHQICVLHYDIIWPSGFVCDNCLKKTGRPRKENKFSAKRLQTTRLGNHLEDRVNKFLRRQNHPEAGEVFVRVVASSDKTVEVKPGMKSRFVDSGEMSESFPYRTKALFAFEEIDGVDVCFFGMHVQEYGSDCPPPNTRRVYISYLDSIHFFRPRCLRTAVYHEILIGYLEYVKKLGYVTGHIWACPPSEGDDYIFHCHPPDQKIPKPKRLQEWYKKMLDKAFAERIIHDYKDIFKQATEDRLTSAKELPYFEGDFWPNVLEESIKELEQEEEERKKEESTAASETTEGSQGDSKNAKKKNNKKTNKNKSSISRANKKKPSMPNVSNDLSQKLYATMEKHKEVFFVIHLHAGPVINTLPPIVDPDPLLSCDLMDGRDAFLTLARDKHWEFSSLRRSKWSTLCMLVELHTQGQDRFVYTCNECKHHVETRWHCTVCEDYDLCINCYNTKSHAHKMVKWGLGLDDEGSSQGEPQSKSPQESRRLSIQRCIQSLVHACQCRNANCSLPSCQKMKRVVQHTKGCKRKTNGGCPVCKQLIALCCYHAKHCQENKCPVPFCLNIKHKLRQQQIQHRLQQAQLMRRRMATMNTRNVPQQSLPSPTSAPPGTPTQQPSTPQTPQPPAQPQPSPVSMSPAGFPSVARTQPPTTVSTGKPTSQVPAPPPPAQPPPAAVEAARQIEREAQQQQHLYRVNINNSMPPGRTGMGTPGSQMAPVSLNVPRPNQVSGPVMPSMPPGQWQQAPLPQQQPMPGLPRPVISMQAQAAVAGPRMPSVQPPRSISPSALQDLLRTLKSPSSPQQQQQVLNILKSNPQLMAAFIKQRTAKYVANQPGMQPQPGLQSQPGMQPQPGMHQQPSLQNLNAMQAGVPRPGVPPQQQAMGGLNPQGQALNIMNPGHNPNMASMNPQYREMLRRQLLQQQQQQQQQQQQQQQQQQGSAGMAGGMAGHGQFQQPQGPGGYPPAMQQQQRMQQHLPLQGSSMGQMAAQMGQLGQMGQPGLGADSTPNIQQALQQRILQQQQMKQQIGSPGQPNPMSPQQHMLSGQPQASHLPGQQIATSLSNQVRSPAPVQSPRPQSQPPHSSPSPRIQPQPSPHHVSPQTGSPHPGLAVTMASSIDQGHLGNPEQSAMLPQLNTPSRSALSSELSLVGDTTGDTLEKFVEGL

[2] = biological target: T2, CLYBL, endogenous in 293T cells (human (endogenous in HEK293T)) (UniProt Q8N0X4); test: co-IP; endogenous proteins in 293T cell lysate; IP lysis buffer, antibody 3 h, then protein A/G magnetic beads 12 h at 4 °C; bait not stated
T2 sequence: T1 sequence

binding [1]: binds
Molecule: CBP in 293T cells (from UniProt Q92793 1-2442)

binding [2]: binds
B1: SIRT2, endogenous in 293T cells (protein, UniProt Q8IXJ6 1-389)
chain: MAEPDPSHPLETQAGKVQEAQDSDSDSEGGAAGGEADMDFLRNLFSQTLSLGSQKERLLDELTLEGVARYMQSERCRRVICLVGAGISTSAGIPDFRSPSTGLYDNLEKYHLPYPEAIFEISYFKKHPEPFFALAKELYPGQFKPTICHYFMRLLKDKGLLLRCYTQNIDTLERIAGLEQEDLVEAHGTFYTSHCVSASCRHEYPLSWMKEKIFSEVTPKCEDCQSLVKPDIVFFGESLPARFFSCMQSDFLKVDLLLVMGTSLQVQPFASLISKAPLSTPRLLINKEKAGQSDPFLGMIMGLGGGMDFDSKKAYRDVAWLGECDQGCLALAELLGWKKELEDLVRREHASIDAQSGAGVPNPSTSASPKKSPPPAKDEARTTEREKPQ
